# Measurements reported in PubChem BioAssay AID296 (DTP/NCI, 2004).
# The list does not hold the whole screen: it gathers tests that were run many times, whatever their T/C, doses with no T/C, and many T/C values between a quarter and a half above the control. Other doses and runs of a compound stand elsewhere. T/C is the treated group as % of the vehicle group. Schedule codes are those of the source, read here as Q, the interval in days (D) or hours (H), X, the number of doses. Some values lie below zero, which means that the treated tumours became smaller. Some doses were run more than once; their values stand side by side, smallest first. Marks such as (2×) say how often a value occurs here. Some T/C values are followed by the survivors on the day toxicity was checked, most often the fifth; where none is given, no animal had died by that day. Some entries give survivors of the animals treated and no T/C: the source holds a T/C of zero for them, seemingly a mark for toxic or unscored doses. Counts of survivors are from the toxicity check (mostly the fifth day) where no day follows; animals may have died later.
# System: MX-1 breast xenograft, nude mice, tumor weight T/C
# Assay: NCI In Vivo Anticancer Drug Screen. Data for tumor model Human Mammary Carcinoma MX-1 Xenograft (intrarenal inoculation) in NU/NU Swiss (nude) mice
# Details: T/C endpoint: mean tumor weight change, higher T/C = larger tumour; for T/C: evaluated on day 11
# Outline: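 Mice carrying the implanted tumor receive either test agent or vehicle. Tumor size or survival is then recorded for both groups. Results are stated as the treated-to-control quotient.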
# [1] = dose: 300.0 mg/kg/injection, schedule: Q04DX003 (sc), vehicle: saline
# [2] = dose: 1200.0 mg/kg/injection, schedule: Q04DX003 (sc), vehicle: saline with Tween-80
# [3] = dose: 2400.0 mg/kg/injection, schedule: Q04DX003 (sc), vehicle: saline with Tween-80
compound,measurement,setting,value
OCC1OC(n2cnc3cncnc32)C(O)C1O (stereo unspecified),survivor count,"dose: 100.0 mg/kg/injection, schedule: Q04DX003 (sc), vehicle: saline",3 of 6 on day 11
O=c1[nH]c(=O)n(C2CC(O)C(CO)O2)cc1I (stereo unspecified),survivor count,"dose: 800.0 mg/kg/injection, schedule: Q01DX010 (sc), vehicle: saline with Tween-80",0 of 3 on day 11
c1ccc([C@H]2CN3CCSC3=N2)cc1,survivor count,"dose: 120.0 mg/kg/injection, schedule: Q04DX003 (sc), vehicle: saline",0 of 6 on day 11
Nc1ncnc2c1ncn2C1OC(CO)C(O)C1O (stereo unspecified),T/C,"dose: 37.5 mg/kg/injection, schedule: Q04DX003 (sc), vehicle: saline","-23, 29, 38, 54, 57, 60, 66, 70, 85, 95, 107, 108, 135 % of control"
same,T/C,"dose: 75.0 mg/kg/injection, schedule: Q04DX003 (sc), vehicle: saline","-55, 11, 15, 22, 23, 25, 38, 41, 53, 54 (2×), 64, 77, 90 % of control"
same,T/C,"dose: 150.0 mg/kg/injection, schedule: Q04DX003 (sc), vehicle: saline","-98, -69 [4 of 6 alive on day 11], -37, 2, 4 [2 of 2 alive on day 11], 17, 20, 25, 33, 50, 54, 95 % of control"
same,T/C,[1],"-29 [4 of 6 alive on day 11], -12 [4 of 6 alive on day 11], 13, 29 % of control [5 of 6 alive on day 11]"
same,survivor count,[1],"0 of 3 on day 11, 0 of 6 on day 11, 1 of 6 on day 11, 1 of 5 on day 11, 2 of 6 on day 11"
same,T/C,"dose: 400.0 mg/kg/injection, schedule: Q04DX003 (sc), vehicle: saline",136 % of control
N=c1nc2n(cc1F)[C@@H]1O[C@H](CO)[C@@H](O)[C@@H]1O2,survivor count,"dose: 2400.0 mg/kg/injection, schedule: Q04DX003 (sc), vehicle: suspension in saline",3 of 6 on day 11
COc1nc(C(Cl)(Cl)Cl)c(Cl)c(OC)c1Cl,survivor count,"dose: 600.0 mg/kg/injection, schedule: Q04DX003 (ip), vehicle: Klucel (hydroxypropylcellulose) (HPC)",3 of 6 on day 11
same,survivor count,"dose: 600.0 mg/kg/injection, schedule: Q04DX003 (oral), vehicle: Klucel (hydroxypropylcellulose) (HPC)",2 of 6 on day 11
same,survivor count,"dose: 1200.0 mg/kg/injection, schedule: Q04DX003 (oral), vehicle: Klucel (hydroxypropylcellulose) (HPC)",0 of 6 on day 11
CCN(CC)CCn1[nH]c2c3ccc(=O)cc3sc3c(NCCN)ccc1c32,survivor count,"dose: 25.0 mg/kg/injection, schedule: Q04DX003 (ip), vehicle: water",1 of 6 on day 11
same,survivor count,"dose: 50.0 mg/kg/injection, schedule: Q04DX003 (ip), vehicle: water",0 of 6 on day 11
CC1(C)CC1(Br)Br,T/C,"dose: 50.0 mg/kg/injection, schedule: Q01DX010 (sc), vehicle: saline with Tween-80",125 % of control
CNc1nc(NC)nc(NC)n1,T/C,"dose: 50.0 mg/kg/injection, schedule: Q01DX010 (ip), vehicle: Klucel (hydroxypropylcellulose) (HPC)",130 % of control
same,T/C,"dose: 50.0 mg/kg/injection, schedule: Q01DX010 (sc), vehicle: Klucel (hydroxypropylcellulose) (HPC)",131 % of control [2 of 2 alive on day 11]
same,T/C,"dose: 83.0 mg/kg/injection, schedule: Q04DX003 (ip), vehicle: Klucel (hydroxypropylcellulose) (HPC)",129 % of control [2 of 2 alive on day 11]
same,T/C,"dose: 166.6 mg/kg/injection, schedule: Q04DX003 (sc), vehicle: Klucel (hydroxypropylcellulose) (HPC)",125 % of control [2 of 2 alive on day 11]
same,survivor count,"dose: 200.0 mg/kg/injection, schedule: Q01DX010 (sc), vehicle: Klucel (hydroxypropylcellulose) (HPC)",0 of 3 on day 11
same,survivor count,"dose: 333.3 mg/kg/injection, schedule: Q04DX003 (sc), vehicle: Klucel (hydroxypropylcellulose) (HPC)",0 of 3 on day 11
same,survivor count,"dose: 333.33 mg/kg/injection, schedule: Q04DX003 (ip), vehicle: Klucel (hydroxypropylcellulose) (HPC)",1 of 3 on day 11
same,survivor count,"dose: 400.0 mg/kg/injection, schedule: Q01DX010 (sc), vehicle: Klucel (hydroxypropylcellulose) (HPC)",0 of 3 on day 11
same,survivor count,"dose: 666.6 mg/kg/injection, schedule: Q04DX003 (sc), vehicle: Klucel (hydroxypropylcellulose) (HPC)",0 of 3 on day 11
same,survivor count,"dose: 666.65 mg/kg/injection, schedule: Q04DX003 (ip), vehicle: Klucel (hydroxypropylcellulose) (HPC)",0 of 3 on day 11
same,survivor count,"dose: 1333.3 mg/kg/injection, schedule: Q04DX003 (sc), vehicle: Klucel (hydroxypropylcellulose) (HPC)",0 of 3 on day 11
Cc1cn(C2CC3[O][Sn]([c]4ccccc4)([c]4ccccc4)[O]CC3O2)c(=O)[nH]c1=O (stereo unspecified),T/C,"dose: 50.0 mg/kg/injection, schedule: Q01DX010 (sc), vehicle: saline",143 % of control
COC1=NCN=C2SC=C(N)N=C12,survivor count,"dose: 300.0 mg/kg/injection, schedule: Q04DX003 (sc), vehicle: suspension in saline",0 of 5 on day 11
Nc1cc2[nH]cnc2c(=O)[nH]1,survivor count,"dose: 200.0 mg/kg/injection, schedule: Q01DX010 (sc), vehicle: saline",0 of 3 on day 11
same,survivor count,"dose: 400.0 mg/kg/injection, schedule: Q01DX010 (sc), vehicle: saline",0 of 3 on day 11
same,survivor count,"dose: 400.0 mg/kg/injection, schedule: Q01DX010 (sc), vehicle: suspension in saline",2 of 6 on day 15
CC(=O)Nc1ccc(S(=O)(=O)CO)cc1,T/C,[2],141 % of control
same,survivor count,[3],1 of 6 on day 11
Cn1/c2cc/c1=C(\c1ccc(S(=O)(=O)O)cc1)c1ccc([n-]1)/C(c1ccc(S(=O)(=O)O)cc1)=c1/cc/c([nH]1)=C(\c1ccc(S(=O)(=O)O)cc1)c1ccc([n-]1)/C=2c1ccc(S(=O)(=O)O)cc1.O.O=S(=O)(O)C(F)(F)F.[Cu+2],survivor count,"dose: 1200.0 mg/kg/injection, schedule: Q04DX003 (sc), vehicle: Klucel (hydroxypropylcellulose) (HPC)",0 of 6 on day 11
CC(=O)Oc1ccccc1O,T/C,"dose: 300.0 mg/kg/injection, schedule: Q04DX003 (sc), vehicle: saline + Tween-80 + alcohol",126 % of control
CC1(C)OC2C(COC(=O)c3ccc([N+](=O)[O-])cc3)OC(NC(=O)N(CCCl)N=O)C2O1 (stereo unspecified),survivor count,[2],0 of 6 on day 11 and 3 of 6 on day 11
same,survivor count,[3],0 of 6 on day 11 and 1 of 6 on day 11
O=Cc1ccc(O)c(O)c1,T/C,"dose: 600.0 mg/kg/injection, schedule: Q04DX003 (sc), vehicle: saline with Tween-80",134 % of control [5 of 6 alive on day 11]
same,survivor count,[2],3 of 6 on day 11
same,survivor count,[3],3 of 6 on day 11
